This passage reports binding results from PMC6710348.

Protein sequences, listed by entry. Tags and fused reporters are not part of them. Residues count along the entry.
UniProt P30561, residues 10-848: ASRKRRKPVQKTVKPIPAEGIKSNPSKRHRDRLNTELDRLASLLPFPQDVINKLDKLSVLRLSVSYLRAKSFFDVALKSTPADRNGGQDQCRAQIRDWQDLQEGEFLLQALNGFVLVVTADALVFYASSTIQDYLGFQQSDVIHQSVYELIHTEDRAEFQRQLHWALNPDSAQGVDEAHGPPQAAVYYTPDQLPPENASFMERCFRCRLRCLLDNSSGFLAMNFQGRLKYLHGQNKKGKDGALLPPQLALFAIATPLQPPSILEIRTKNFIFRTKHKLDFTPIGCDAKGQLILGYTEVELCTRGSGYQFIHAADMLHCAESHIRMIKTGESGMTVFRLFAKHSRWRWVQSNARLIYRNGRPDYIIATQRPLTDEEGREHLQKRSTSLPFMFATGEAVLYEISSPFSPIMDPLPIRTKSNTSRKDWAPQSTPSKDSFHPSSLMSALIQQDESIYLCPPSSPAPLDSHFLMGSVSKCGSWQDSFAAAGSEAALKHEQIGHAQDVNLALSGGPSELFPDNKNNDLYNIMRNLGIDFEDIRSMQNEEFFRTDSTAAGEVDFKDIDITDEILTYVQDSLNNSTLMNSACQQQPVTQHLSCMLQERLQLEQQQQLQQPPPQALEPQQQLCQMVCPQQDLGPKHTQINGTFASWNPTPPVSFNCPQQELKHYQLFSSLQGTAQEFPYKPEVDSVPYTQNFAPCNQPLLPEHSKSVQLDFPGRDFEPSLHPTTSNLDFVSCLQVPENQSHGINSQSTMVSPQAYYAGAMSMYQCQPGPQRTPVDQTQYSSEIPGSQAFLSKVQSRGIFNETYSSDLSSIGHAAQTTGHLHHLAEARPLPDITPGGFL

The experiment addresses T1, Nuclear coactivator 7 (NCOA7), mouse (mouse) (UniProt Q6DFV7).
T1 sequence: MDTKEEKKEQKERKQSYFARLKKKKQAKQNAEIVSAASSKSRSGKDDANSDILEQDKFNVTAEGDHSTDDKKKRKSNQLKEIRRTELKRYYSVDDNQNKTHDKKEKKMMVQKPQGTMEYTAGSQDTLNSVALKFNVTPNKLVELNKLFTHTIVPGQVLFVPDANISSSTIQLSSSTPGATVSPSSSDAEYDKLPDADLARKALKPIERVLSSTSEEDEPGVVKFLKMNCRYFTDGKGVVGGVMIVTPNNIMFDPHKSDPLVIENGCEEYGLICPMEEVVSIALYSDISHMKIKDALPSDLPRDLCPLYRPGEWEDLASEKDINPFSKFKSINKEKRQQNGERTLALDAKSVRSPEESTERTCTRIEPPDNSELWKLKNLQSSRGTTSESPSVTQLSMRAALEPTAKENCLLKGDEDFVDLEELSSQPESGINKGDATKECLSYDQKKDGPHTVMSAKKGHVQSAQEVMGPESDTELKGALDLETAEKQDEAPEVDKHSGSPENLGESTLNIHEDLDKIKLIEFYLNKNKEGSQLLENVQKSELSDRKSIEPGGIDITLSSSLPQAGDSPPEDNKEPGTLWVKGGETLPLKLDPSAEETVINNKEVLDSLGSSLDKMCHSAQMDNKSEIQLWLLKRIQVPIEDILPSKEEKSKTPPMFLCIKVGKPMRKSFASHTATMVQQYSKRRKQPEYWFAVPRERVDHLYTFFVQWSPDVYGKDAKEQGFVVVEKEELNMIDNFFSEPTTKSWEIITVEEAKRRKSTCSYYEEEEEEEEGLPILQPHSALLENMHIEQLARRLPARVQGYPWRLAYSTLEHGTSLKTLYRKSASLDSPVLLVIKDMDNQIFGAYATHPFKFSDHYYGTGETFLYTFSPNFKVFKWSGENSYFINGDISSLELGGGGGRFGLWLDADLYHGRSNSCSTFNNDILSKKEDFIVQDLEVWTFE
Kind of experiment: co-IP; mouse AhR and NCOA7 coexpressed in human HEK293 cells; cells incubated 4 h with medium, 50 uM Kyn, 50 uM 3-HAA or both before lysis; immunoprecipitation with anti-NCOA7 antibody, Western blot with anti-AhR antibodies (text says reciprocal immunoprecipitation). For orientation: In western blotting, separated proteins are transferred to a membrane and probed.

Results are given in words; binding and its absence hold for the method and conditions named. Binding seen in cells or lysates may run through a third protein. Some binding calls cover weakened binding; strength is not graded here.

Regarding “Aryl hydrocarbon Receptor (AhR), mouse (from UniProt P30561 10-848)”, the binding entry is listed as “binds”.
